Laboratory results from PMC12979858.

Protein sequences, listed by entry. Tags and fused reporters are not part of them.
UniProt Q8CGF6: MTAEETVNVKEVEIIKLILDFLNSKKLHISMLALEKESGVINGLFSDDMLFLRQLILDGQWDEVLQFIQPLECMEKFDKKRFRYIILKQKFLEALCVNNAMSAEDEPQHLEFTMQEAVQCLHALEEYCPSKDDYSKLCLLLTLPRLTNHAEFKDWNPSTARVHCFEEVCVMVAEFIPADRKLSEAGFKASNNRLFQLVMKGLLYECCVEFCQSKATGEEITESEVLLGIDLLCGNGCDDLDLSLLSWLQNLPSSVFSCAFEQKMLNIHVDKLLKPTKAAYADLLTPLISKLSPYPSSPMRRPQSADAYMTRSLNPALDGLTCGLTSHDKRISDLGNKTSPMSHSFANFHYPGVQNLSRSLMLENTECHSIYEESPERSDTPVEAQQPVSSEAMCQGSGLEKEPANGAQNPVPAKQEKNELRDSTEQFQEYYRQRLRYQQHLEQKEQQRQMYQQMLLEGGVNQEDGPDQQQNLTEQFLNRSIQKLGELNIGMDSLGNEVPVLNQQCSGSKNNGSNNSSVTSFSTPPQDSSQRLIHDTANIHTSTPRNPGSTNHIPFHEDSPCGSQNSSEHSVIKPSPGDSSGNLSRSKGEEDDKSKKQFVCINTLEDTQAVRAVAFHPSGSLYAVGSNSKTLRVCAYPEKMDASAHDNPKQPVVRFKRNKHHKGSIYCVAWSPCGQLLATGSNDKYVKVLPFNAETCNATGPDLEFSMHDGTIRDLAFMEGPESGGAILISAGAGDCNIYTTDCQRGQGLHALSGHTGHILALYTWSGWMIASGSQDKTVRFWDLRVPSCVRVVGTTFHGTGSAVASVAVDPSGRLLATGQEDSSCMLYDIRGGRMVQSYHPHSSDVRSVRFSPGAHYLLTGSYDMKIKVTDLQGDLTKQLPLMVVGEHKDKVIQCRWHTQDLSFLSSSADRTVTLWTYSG

Molecular target: APEX2-WDR47 (mouse) (UniProt Q8CGF6)
Test: proximity labelling; APEX2-WDR47 expressed in mEPCs by adenovirus; 500 uM biotin-phenol at 37 C for 30 min, 1 mM H2O2 for 1 min; lysis in RIPA buffer, biotinylated proteins on streptavidin-conjugated agarose beads, shotgun mass spectrometry; cutoff >= twofold peptide ratio against the mock-treated control

binding | Binder
binds | RGS22 (protein, UniProt G3UYX5 1-1258) MPEKRLSAEPPEVTEEEFENYLATDNFLVDYFNEFLSLPTFPEAIRFNVDYGVFEVVNDAPQLLEKQLKKILQNQQPRNPIYDVVRKGKSDSKSTQKSVPCEDEAINVNYSIMCLKREQGINWIKRERLPAFLESDCYFEYRLAKLISQATWSSTGMNFIVGTNFTPWILRRPPAPPPPSTDEDNYMIMKKFYVSLGQASYTQTKDWFTLAKESENTVTMASLPCCIPHHQTASPVIATASEIFDDGVHPRTIKSLSKSSKAVSELDEEEEGSISMKDSPSQALLRVYLEKKGGKERNLTLHFSSVEEFLDAYIIFILREAIQHITGQSLSDTPEYINYYKVSHVIFDKVPPVPSNKAIVSPPVEMVEEISKDRLENVSLSSESESIGPESRADWCISHRTYDIGNRREFERFKKFLKGTLGERYWWLWMDIERLKVLKDPERHQRHLEKMKKCYLVSSGERYLSAEILSKFKLLHGSRWTADHLKNIQAEVLKPLLLYWAPRFCVTHSASAKNASTELKFWRLRQEKPRKDVDPFPQMATLLPLRPKSCIPQTPEVQGEEINLFQPSKFKKLSKINAGTQQLGRSEPLNAVSSKDGGLEKGSKRLPESTTVVRLTSFTDISECLKPQLERKYTYTEEHNVKTVSNVGALGGFDMENLLQSLYVENRAGFFFTKFCENSGNKLWKHSVYFWFDLQAYHQLFYQETLQPFKVCKQAQYLFATYIAPSASFDIGLHQEGKKDIYMKIQPPFEDLFDTAEEFILLSLLEPWTQMVMSDKMAYKKVELQEETRQLDSACFRKLHALHKETISKKAEDTTGYAMAKLSLSDVSKQTEYWLNVPEGYKHFTFTDLLNNKLEFEHFRQFLESHSSSLDLMCWIDIEQFRRIIFKDQKQREEKSIYIKNKYLNKKYFFGPRSPASLHQQNQIMLLSGGWGRILHEQLDASVLVEIQKHVLNRLENVWLPLFLSSEQFASRQKIKTQMKDIADELLLQRHDRKIGVWKPVESKWISSSCEIIAFRKALLNPVIARQFQRFVALKGDLLENGVLFWQEVQKFKDLCHSHCDESIIHKKITTIINCFINSYIPPALQIDIPVEQAQKILEHRKELGPYVFREAQMTIFGVLFKFWPQFCEFRKNLTDEKIMSVLERRQEHKQKRKASDTEEDKAGKSGVKQYASTTGSLTKPVLGSESLLVLQSYGRQPTWCYSKYIEALEQERILLKIQEEVERKMFTGTSSFTNLLKPSTGSALSLKKNVSLHSIQR
binds | NPHP1 (protein, UniProt Q9QY53 1-687) MLARRPRDPLQALRRRGQELKLQVDSLVTESQLTGALEPSKRREIYQRCIQLKQAVDENKNTLQKLNKADEAAPVGNYEQRKEEEHSLLEKLACQLQELAVSISRKDALKVEAHSDKEEDDTTEDDEEETGGEEEESEGDGEGKQEQASPKQAETETVTYIALGDFAAQQTGDLTFKKGDVLHIIEKKPDGWWLAKDAEGVEGLIPRTYLEPYNKEDKLESSEGSEEGGEEDGEEDVEVVDETADGAQVKQRTDSHWSAVRKAISEQINTVDVLATMGAIPAGFRPSTLSQLLDEAGNQFRASYFLQPELTTSQLAFRDLTWDAKAGTIMSRPSRVSLILTLWSCKMIPLPGTSIQVLSRHIRLCLFDGSKVLSNIHTVRAVWQPKKPKTWTFSPQVTGILPCLLDGDCFIRSNSSTPDLGILFELGISYIRNSTGERGELSCGWVFLKLFDASGVPIPAKTYELFLNGGTPYEKGVEVDPSVSRRAQGSVFRQMISVRRQPQLLVKLRSLNRRSRAMLSLLPETLVGSMCSAHLLIFYRQILGDVLLRDRTNLQSADLISHPVLATFPLLLEQPDVMDALRSSWSEKESTLKRAEKRDKELLKAEFLLVYHDCVLPLLHSTLLPPFRWAEEETEAARWKAIADFLKQSRENEGSLKALLSPDGVHKPFDLSEQTFDFLGEIRKNSG

No constants are given. Whether binding was seen depends on the method and setting. In cells and extracts the contact can be indirect. Here binding means that the protein was enriched with, or labelled near, the bait; the list need not be complete.
